System: BxPC3-GFP-Luc intrapancreatic tumors
Assay: MRMI of BxPC3-GFP-Luc intrapancreatic tumors
Assay type: in vivo, mice
Conditions: 0.1 mmol/kg
Procedure: For flank xenograft models, 4×10^6 Capan-1 cells suspended in 100 μL of a 6 mg/mL Matrigel (Corning, Corning, NY) solution was injected subcutaneously into the flank of eight-week-old female nu/nu mice. The tumor bearing mice were imaged after tumor volumes exceeded 300 mm^3. For orthotopic intrapancreatic models, the pancreas of four-week-old female nu/nu mice were surgically exposed and 1×10^6 BxPC3-GFP-Luc or PANC-1-GFP-Luc cells suspended in 100 μL of an Matrigel solution (6 mg/mL) was injected into the pancreatic tissue. Prior to imaging, growth of tumor was verified by bioluminescence imaging with intraperitoneal injection of d-luciferin on IVIS Spectrum system (Perkin Elmer, Waltham, MA).
Mice bearing intrapancreatic tumors were anesthetized and a tail vein catheter was inserted. Image acquisition was performed on a MR Solutions 3T MRS 3000 scanner with a mouse radiofrequency coil. […]
Image files were exported and analyzed in Horus software. […] The contrast-to-noise ratio of the tumor (CNR) was calculated using the following equation, where σ_noise is the standard deviation of intensities from an ROI drawn outside of the mouse body: […]

| Substance | time after injection at which tumor contrast enhancement returned to background level |
| --- | --- |
| Gd(HP-DO3A) [gadoteridol, reference compound] | 20 min |
| ZD2-N3-Gd(HP-DO3A) (TVRTSAD; cyclised or stapled) [MT218, EDB-FN-targeted MRI contrast agent; ZD2 peptide conjugated to the clinical macrocyclic agent Gd(HP-DO3A)] | 30 min |
